Reference: the supplement of paper PMC8166895
Counter-ions that a name gives are not always drawn. Some of the results follow. Most values lie at the level of the controls, where differences are scatter.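 Melting temperature was read by differential scanning fluorimetry in a single-replicate pilot screen of a library of approved drugs and clinical or known-target compounds. Compounds raising the melting point by at least 2 °C were the top stabilizing hits, and negative shifts mean destabilization.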

system: SARS-CoV-2 main protease (Mpro, nsp5); experiment: thermal shift ΔTm of Mpro relative to plate average Tm; higher = stronger thermal stabilization of Mpro (binding); conditions: 10 µM; protein concentration 1 µM

Row | SMILES | thermal shift ΔTm of Mpro [°C]
1 | [I-].[K+] [Potassium Iodide] | 0.0246
2 | CC(=O)OC1C2CCC3C(C)(O)C4C5OC5C(C)(C)C4(O)C(O)CC13CC2(C)O (configuration not stated) [Rhodojaponin V] | -0.0617
3 | O=C(Nc1ccc(-c2ccnc(Nc3ccc(N4CCOCC4)cc3)n2)cc1)C1CCCN1 (configuration not stated) | -0.164
4 | COc1nc(-c2ccc3c(c2)OCO3)n(-c2ccc(NC(=O)CSc3ccccc3)cc2)n1 [SecinH3] | -0.0598
5 | COc1ccc2[nH]c([S+]([O-])Cc3ncc(C)c(OC)c3C)nc2c1 (configuration not stated) [Omeprazole] | 0.0474
6 | COc1ccc(-c2ccccc2)cc1NS(=O)(=O)c1cc(Cl)cc(Cl)c1O | 0.0886
7 | O=P1(N(CCCl)CCCl)NCCCO1 (configuration not stated) [Cyclophosphamide Monohydrate] | 0.023
8 | c1ccc2c(c1)sc1ccccc12 [Dibenzothiophene] | 0.00252
9 | NC(=S)N/N=C/c1ncccc1N [Triapine] | -0.233
10 | Nc1cccc2c1CN(C1CCC(=O)NC1=O)C2=O (configuration not stated) [Lenalidomide (CC-5013)] | -0.138
11 | COc1cccc(CNc2ccc(S(=O)(=O)Nc3nc4ccccc4s3)cc2)c1O | -0.03
12 | O=S(=O)(O)CCCS(=O)(=O)O [Eprodisate disodium] | -0.182
13 | C[C@H](Oc1cc(-c2cnn(C3CCNCC3)c2)cnc1N)c1c(Cl)ccc(F)c1Cl [(S)-crizotinib] | -0.395
14 | CN(C)CCOC(=O)COc1ccc(Cl)cc1 [Meclofenoxate (Centrophenoxine) HCl] | -0.0506
15 | Brc1c(NC2=NCCN2)ccc2nccnc12 [Brimonidine Tartrate] | 0.419
16 | CC[C@@H]1CN2CC[C@@]3(C(=O)Nc4ccccc43)[C@@H]2C[C@@H]1/C(=C\OC)C(=O)OC [Corynoxine] | -0.0625
17 | CCOP(=S)(OCC)Oc1nc(Cl)c(Cl)cc1Cl [Clorpyrifos] | 0.221
18 | CN(C)c1ccc2c(c1)Sc1cc(N(C)C)ccc1N2 [TRx0237 mesylate] | 0.124
19 | O=C(/C=C/n1cnc(-c2cc(C(F)(F)F)cc(C(F)(F)F)c2)n1)N1CC(F)(F)C1 | -0.0138
20 | COc1ccc(/C=C2\CCCN=C2c2cccnc2)c(OC)c1 [GTS 21 dihydrochloride] | 0.00864
21 | N=C(N)N/N=C/c1c(Cl)cccc1Cl [Guanabenz Acetate] | 0.0502
22 | Cc1ccc2c(Cl)cc(Cl)c(O)c2n1 [Chlorquinaldol] | 0.0349
23 | C=CC/C(=N/OS(=O)(=O)O)S[C@@H]1O[C@H](CO)[C@@H](O)[C@H](O)[C@H]1O [Allylglucosinolate monohydrate] | 0.0796
24 | NCc1c[nH]c(=S)n1[C@@H]1CCc2c(F)cc(F)cc2C1 [(R)-Nepicastat HCl] | -0.323
25 | COc1cc(OC)cc(C(=O)Nc2ccc(Cl)c(-c3nc4ccc(N(C)C)cc4[nH]3)c2)c1 [HhAntag] | 0.106
26 | CN(C)CC[C@@H](c1ccc(Cl)cc1)c1ccccn1 [Dexchlorpheniramine Maleate] | -0.141

Row | SMILES | thermal shift ΔTm of Mpro [°C]
27 | NCCC(=O)[N-][C@@H](Cc1c[nH]cn1)C(=O)[O-].[Zn+2] [Polaprezinc] | 0.283
28 | CN(CCOc1ccc(CC2SC(=O)NC2=O)cc1)c1ccccn1 (configuration not stated) [Rosiglitazone HCl] | 0.0777
29 | CN(CCOc1ccc(CC2SC(=O)NC2=O)cc1)c1ccccn1 (configuration not stated) [Rosiglitazone] | 0.0927
30 | CN(CCOc1ccc(CC2SC(=O)NC2=O)cc1)c1ccccn1 (configuration not stated) [Rosiglitazone maleate] | 0.0712
31 | C=C[C@@H]1C[C@]1(NC(=O)[C@@H]1C[C@@H](Oc2ncc(OC)c3ccc(Cl)cc23)CN1C(=O)[C@@H](NC(=O)OC(C)(C)C)C(C)(C)C)C(=O)NS(=O)(=O)C1CC1 [Asunaprevir] | -0.112
32 | C[C@H]1C[C@@H]2[C@H]([C@@H](O)C[C@@]3(C)[C@H]2CC[C@]3(O)C(=O)COC(=O)CCC(=O)O)[C@@]2(C)C=CC(=O)C=C12 [Methylprodnisolone Sodium Succinate] | 0.277
33 | CCOC(=O)c1c(C)n(C)c2ccc(O)cc12 [Mecarbinate] | -0.0703
34 | Nc1cc(-c2ccncc2)c[nH]c1=O [Amrinone] | 0.0917
35 | COc1ccc(C[C@@H]2c3cc(OC)c(OC)cc3CC[N@+]2(C)CCC(=O)OCCCCCOC(=O)CC[N@@+]2(C)CCc3cc(OC)c(OC)cc3[C@H]2Cc2ccc(OC)c(OC)c2)cc1OC [Cisatracurium Besylate] | 0.133
36 | COP(=S)(OC)Oc1ccc(Sc2ccc(OP(=S)(OC)OC)cc2)cc1 [Temephos] | 0.242
37 | N#Cc1ccc(Oc2ccc3c(c2)COB3O)cc1 [Crisaborole] | 0.0783
38 | CC(N)C12CC3CC(CC(C3)C1)C2 (configuration not stated) [Rimantadine] | 0.155
39 | CC(N)C12CC3CC(CC(C3)C1)C2 (configuration not stated) [Rimantadine hydrochloride] | 0.0163
40 | CS(=O)(=O)Nc1ccc([N+](=O)[O-])cc1OC1CCCCC1 | -0.0274
41 | COC(=O)C(N)CS [L-Cysteine methyl ester hydrochloride(Acdrile)] | 0.126
42 | Cc1ccc(NS(=O)(=O)c2cccc(C#N)c2)c2[nH]cc(C#N)c12 | 0.233
43 | O=C(O)CC1CC(c2ccccc2)=NO1 (configuration not stated) | 0.0301
44 | c1ccc(/N=N/c2ccccc2)cc1 [Azobenzene] | 0.0674
45 | CN(C)c1ccc(/C=C/C(=O)c2ccc(Br)s2)cc1 | 0.104
46 | Cn1c([N+](=O)[O-])cnc1COC(N)=O [Ronidazole] | 0.162
47 | CCN(c1cc(-c2ccc(CN3CCOCC3)cc2)cc(C(=O)NCc2c(C)cc(C)[nH]c2=O)c1C)C1CCOCC1 | -0.0379
48 | COc1cc(N2CCN(C(C)=O)CC2)ccc1Nc1ncc(Cl)c(Nc2ccc(N3CCN(C(C)=O)CC3)cc2OC)n1 | 0.0545
49 | COc1ccc(C(=O)NCc2ccc(OCCN(C)C)cc2)cc1OC [Itopride hydrochloride] | 0.149
50 | N[C@@H](C(=O)N[C@@H]1C(=O)N2C(C(=O)O)=C(Cl)CS[C@H]12)c1ccccc1 [Cefaclor monohydrate] | 0.0878
51 | CCCCCCCCCCCCCCCC[n+]1ccccc1 [Cetylpyridinium Chloride] | -0.444
52 | CCCCCCCCCCCCCCCC[n+]1ccccc1 [Cetylpyridinium chloride monohydrate] | -0.832

Reformatted as tab-separated lines: part of the list above
Row	SMILES	thermal shift ΔTm of Mpro [°C]
2	CC(=O)OC1C2CCC3C(C)(O)C4C5OC5C(C)(C)C4(O)C(O)CC13CC2(C)O (configuration not stated) [Rhodojaponin V]	-0.0617
4	COc1nc(-c2ccc3c(c2)OCO3)n(-c2ccc(NC(=O)CSc3ccccc3)cc2)n1 [SecinH3]	-0.0598
5	COc1ccc2[nH]c([S+]([O-])Cc3ncc(C)c(OC)c3C)nc2c1 (configuration not stated) [Omeprazole]	0.0474
8	c1ccc2c(c1)sc1ccccc12 [Dibenzothiophene]	0.00252
9	NC(=S)N/N=C/c1ncccc1N [Triapine]	-0.233
19	O=C(/C=C/n1cnc(-c2cc(C(F)(F)F)cc(C(F)(F)F)c2)n1)N1CC(F)(F)C1	-0.0138
38	CC(N)C12CC3CC(CC(C3)C1)C2 (configuration not stated) [Rimantadine]	0.155
45	CN(C)c1ccc(/C=C/C(=O)c2ccc(Br)s2)cc1	0.104
52	CCCCCCCCCCCCCCCC[n+]1ccccc1 [Cetylpyridinium chloride monohydrate]	-0.832
